Reference: patent US5707800, “Retinoic acid response elements and assays employing same” (The Salk Institute for Biological Studies)
Construct, isoform or probe ends are uncertain for at least one entry.

Test system: RAR (retinoic acid receptor, subtype not stated for gel shift)
Assay: EMSA
Details: saturates probe; affinity appeared greater than for betaRE; unlabeled RXRE competes at least as well as betaRE; purified recombinant protein; protein details: bacterially produced, partially purified; label: 32P

GCTGTCACAGGTCACAGGTCACAGGTCACAGTTCA (double strand) [CRBPII-RXRE]
binding result: binds
